Measurements reported in PubChem BioAssay AID504771 (Drosophila RNAi Screening Center, 2011)
Assay: 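Knock-downs that increase or decrease Htt-Q46 aggregates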 (follow-up of hits). System: Drosophila S2 cells with copper-inducible mutant huntingtin exon 1 (46 glutamines)-eGFP. Reagent: long dsRNA against Drosophila genes, 250 ng dsRNA per well. Time to read-out: 3 days of knock-down, then 2 days of copper induction before fixing. Conditions: copper sulfate at 400 µM to switch on Htt-Q46-eGFP expression. Measured: 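Per-well count, size and brightness of GFP aggregates from automated images, set against plate mean and SD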. Active means: 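Primary candidate if any aggregate measure lay more than 2 SD from the plate mean; active only if it then passed checks for off-target effects, reproducibility, independent dsRNAs and a promoter counter-screen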. Calls: active = confirmed modifier; inactive = primary candidate not confirmed.
Only reagents picked out of a larger screen are listed. 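All genes were primary candidates; inactive means validation failed, not no effect; aggregate scores behind calls are not deposited.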 A plus sign joins genes that one reagent is predicted to hit.

The opening 3 records, to show the layout:
Pgk (GeneID 33461) [DRSC23340]
- aggregation phenotype: knock-down lowers aggregates
- outcome: active

CG10660 (GeneID 39422) [DRSC09769]
- aggregation phenotype: knock-down lowers aggregates
- outcome: inactive

TfIIFbeta (GeneID 41290) [DRSC21447]
- aggregation phenotype: knock-down lowers aggregates
- outcome: inactive

Results, from the start:
Pgk (GeneID 33461) [DRSC23340]
- aggregation phenotype: knock-down lowers aggregates
- outcome: active

CG10660 (GeneID 39422) [DRSC09769]
- aggregation phenotype: knock-down lowers aggregates
- outcome: inactive

TfIIFbeta (GeneID 41290) [DRSC21447]
- aggregation phenotype: knock-down lowers aggregates
- outcome: inactive

Rpn8 (GeneID 37894) [DRSC04624]
- aggregation phenotype: knock-down lowers aggregates
- outcome: inactive

CG33500 (GeneID 2768957) [DRSC09115]
- aggregation phenotype: knock-down raises aggregates
- outcome: inactive

chb (GeneID 43901) [DRSC11469]
- aggregation phenotype: knock-down lowers aggregates
- outcome: inactive

mTor (GeneID 47396) [DRSC02811]
- outcome: active

Rrp4 (GeneID 37731) [DRSC04434]
- aggregation phenotype: knock-down lowers aggregates
- outcome: inactive

Srrm234 (GeneID 38206) [DRSC07955]
- aggregation phenotype: knock-down lowers aggregates
- outcome: inactive

Cyt-c1 (GeneID 38612) [DRSC10447]
- aggregation phenotype: knock-down lowers aggregates
- outcome: inactive

spt4 (GeneID 36387) [DRSC07696]
- aggregation phenotype: knock-down raises aggregates
- outcome: inactive

CG9667 (GeneID 40960) [DRSC16535]
- aggregation phenotype: knock-down lowers aggregates
- outcome: active

gw (GeneID 43808) [DRSC17135]
- aggregation phenotype: knock-down lowers aggregates
- outcome: inactive

Prp19 (GeneID 37123) [DRSC07434]
- aggregation phenotype: knock-down lowers aggregates
- outcome: active

GluProRS (GeneID 42834) [DRSC14095]
- aggregation phenotype: knock-down lowers aggregates
- outcome: inactive

CG6094 (GeneID 34446) [DRSC22705]
- aggregation phenotype: knock-down lowers aggregates
- outcome: inactive

RpL35A (GeneID 40654) [DRSC12302]
- aggregation phenotype: knock-down lowers aggregates
- outcome: inactive

Sec61alpha (GeneID 33905) [DRSC03256]
- aggregation phenotype: knock-down lowers aggregates
- outcome: active

CG1677 (GeneID 31662) [DRSC18116]
- aggregation phenotype: knock-down lowers aggregates
- outcome: inactive

hay (GeneID 39202) [DRSC11354]
- aggregation phenotype: knock-down lowers aggregates
- outcome: inactive

RpL6 (GeneID 43723) [DRSC14323]
- aggregation phenotype: knock-down lowers aggregates
- outcome: inactive

RpL6 (GeneID 43723) [DRSC22384]
- aggregation phenotype: knock-down lowers aggregates
- outcome: inactive

Rcc1 (GeneID 38669) [DRSC09684]
- aggregation phenotype: knock-down lowers aggregates
- outcome: inactive

Sf3b2 (GeneID 33514) [DRSC00619]
- aggregation phenotype: knock-down lowers aggregates
- outcome: active

Tti1 (GeneID 41189) [DRSC15163]
- aggregation phenotype: knock-down raises aggregates
- outcome: active

Cdc5 (GeneID 38062) [DRSC08577]
- aggregation phenotype: knock-down lowers aggregates
- outcome: active

Klp61F (GeneID 38135) [DRSC08671]
- aggregation phenotype: knock-down lowers aggregates
- outcome: active

l(2)05287 (GeneID 35374) [DRSC02152]
- aggregation phenotype: knock-down lowers aggregates
- outcome: inactive

CG6891 (GeneID 32865) [DRSC20016]
- aggregation phenotype: knock-down raises aggregates
- outcome: inactive

alphaTub85E (GeneID 41183) [DRSC16899]
- aggregation phenotype: knock-down lowers aggregates
- outcome: inactive

Nxt1 (GeneID 37769) [DRSC04630]
- aggregation phenotype: knock-down lowers aggregates
- outcome: inactive

CG31743 + CG34313 [DRSC02781]
- aggregation phenotype: knock-down lowers aggregates
- outcome: inactive

Tpr2 (GeneID 34984) [DRSC03461]
- outcome: inactive

Cchl (GeneID 42590) [DRSC15949]
- aggregation phenotype: knock-down lowers aggregates
- outcome: inactive

Nup107 (GeneID 34481) [DRSC01999]
- aggregation phenotype: knock-down lowers aggregates
- outcome: active

ocm (GeneID 37874) [DRSC04360]
- aggregation phenotype: knock-down raises aggregates
- outcome: active

ND-42 (GeneID 42591) [DRSC16754]
- aggregation phenotype: knock-down lowers aggregates
- outcome: inactive

CG14104 (GeneID 50259) [DRSC10106]
- aggregation phenotype: knock-down lowers aggregates
- outcome: inactive

Nnp-1 (GeneID 44391) [DRSC02165]
- aggregation phenotype: knock-down lowers aggregates
- outcome: active

Hsc70-5 (GeneID 36583) [DRSC07442]
- aggregation phenotype: knock-down raises aggregates
- outcome: active

Cdc23 (GeneID 35315) [DRSC02708]
- aggregation phenotype: knock-down lowers aggregates
- outcome: inactive

Spt6 (GeneID 44000) [DRSC18836]
- aggregation phenotype: knock-down lowers aggregates
- outcome: inactive

MED26 (GeneID 43816) [DRSC17126]
- aggregation phenotype: knock-down lowers aggregates
- outcome: inactive

MED26 (GeneID 43816) [DRSC17148]
- aggregation phenotype: knock-down lowers aggregates
- outcome: inactive

CG31959 (retired record) (GeneID 326180) [DRSC22912]
- aggregation phenotype: knock-down raises aggregates
- outcome: active

rn (GeneID 40879) [DRSC12500]
- aggregation phenotype: knock-down raises aggregates
- outcome: active

LSm3 (GeneID 42842) [DRSC15920]
- aggregation phenotype: knock-down raises aggregates
- outcome: inactive
